Results on 20 molecules are retold here after the supplement of paper PMC12889115.

The assay has as its system Salmonella enterica serovar Typhimurium SL1344. The assay is described as follows: bacterial growth OD600 after 18 h with compound and polymyxin B; higher = more bacterial growth (less inhibition). The note with it: 50 µM, Mueller-Hinton broth.

The list shows a part of the results. Values are raw readings; no control value is given beside them.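 In the initial screen, polymyxin B was used at a concentration that permeabilizes Salmonella's outer membrane but not its inner membrane. Maximum growth was set by DMSO wells with or without polymyxin B. Since plates varied, data were ranked per plate, and compounds giving the lowest OD600 advanced as hits.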

In the case of `Cc1ncc2c(c1CNC(=O)c1cccs1)CCN(C(=O)c1c(-c3ccccc3)noc1C)C2`, the “bacterial growth OD600” value (polymyxin B 0.75 µg/mL) amounted to 0.996.
`OCC1(Cc2ccccc2)CCN(Cc2cc(F)ccc2-n2cccn2)CC1`: the “bacterial growth OD600” value (polymyxin B 1 µg/mL) amounted to 0.894.
Same read-out and setting: in the case of `CC1(C(=O)N2CCCC2C(=O)Nc2cccc(-n3cccn3)c2)CC1` (stereo not given) it was 1.11.
For `Cc1cnc(CNC(=O)C2(N(C)CCc3ccccc3)Cc3ccccc3C2)cn1`, the “bacterial growth OD600” value (polymyxin B 0.75 µg/mL) turned out to be 0.523.
Same read-out and setting: in the case of `O=C(c1ccco1)N1CCOC(CCc2ccccc2)C1` (stereo not given) it was 0.791.
Consider `CN(CC1CCCN(CCc2ccccc2F)C1)C(=O)C1=CCCCC1` (stereo not given), for which, for the setting “polymyxin B 1 µg/mL”, the “bacterial growth OD600” value came to 1.08.
With `CC(C)n1cc(C(=O)NCc2ccccc2)c(=O)c(C(=O)N2CCN(c3ccccc3)CC2)c1`, the “bacterial growth OD600” value (polymyxin B 0.75 µg/mL) worked out at 0.709.
`Cc1ccccc1N1C(=O)CN(C(=O)c2cccc(Cn3cccn3)c2)CC1C` (stereo not given): the “bacterial growth OD600” value (polymyxin B 0.75 µg/mL) was 0.821.
Take `CCCn1cc(CN(C)CC2CCCN(CCc3ccccc3F)C2)c(C)n1` (stereo not given): the “bacterial growth OD600” value (polymyxin B 1 µg/mL) was found to be 0.764.
For `O=C(c1ccc(-n2cccn2)cc1)N1CCCC(CO)(CCOc2ccccc2)C1` (stereo not given), the “bacterial growth OD600” value (polymyxin B 0.75 µg/mL) turned out to be 0.695.
With `CCC(=O)NCc1cccnc1-n1cnc2ccccc21`, the “bacterial growth OD600” value (polymyxin B 1 µg/mL) is 0.866.
On the same count and under the same terms, the value for `COCCC1CCCCN1Cc1cnc(S(=O)(=O)C(C)C)n1CCc1ccccc1` (stereo not given) was 1.12.
In the case of `CCN(CC1CCCN(CCc2cccc(F)c2)C1)C(=O)CC1CCN(C)CC1` (stereo not given), the “bacterial growth OD600” value (polymyxin B 0.75 µg/mL) is 0.951.
The same measure, in the same setting: the value for `O=C(c1cnc(O)cn1)N1CCC(C2CCN(Cc3cccc(F)c3F)CC2)C1` (stereo not given) was 0.892; that for `COC(=O)CCCC(=O)NC1CC(C)(C)Cc2nc(C(C)(C)C)ncc21` (stereo not given) was 0.822.
As for `CCn1ccnc1CN1CCC(Oc2cc(OC)ccc2C(=O)N2CCCC2)CC1`, where the note is “polymyxin B 1 µg/mL”, the “bacterial growth OD600” value turned out to be 1.07.
`Fc1ccc(Cc2noc(-c3ccc(NCc4cccnc4)nc3)n2)cc1`: the “bacterial growth OD600” value (polymyxin B 0.75 µg/mL) worked out at 0.004.
As for `CC1(C)C(=O)NCCN1C(=O)CC(c1ccc(O)cc1)c1ccccc1O` (stereo not given), the “bacterial growth OD600” value (polymyxin B 1 µg/mL) amounted to 0.963.
As to `O=C(NCc1cccs1)c1cn(C2CCCCC2)cc(C(=O)NC2CC2)c1=O`, the “bacterial growth OD600” value (polymyxin B 0.75 µg/mL) came to 0.724.
Same read-out and setting: the value for `COc1cccc(CCC2CCCN(C(=O)CN3CCCC3=O)C2)c1` (stereo not given) was 0.781.
